# Not every detail of the peptide structures is certain; ends, links or a residue may be inferred. Non-standard residues stand in square brackets, D forms with d. Residues, ends and D or L forms follow the SMILES beside them. Inp = O=C(O)C1CCNCC1
# Test system: mice (CD-1), collagen/adrenaline-induced thromboembolism
# Assay: Thromboembolism in mice (collagen + adrenaline i.v.)
# Type: in vivo
# Settings: i.v. pre-treatment
# Procedure: Male mice (CD-1) weighing from 28 to 32 g are used for these experiments. The animals are maintained at from 26° to 28° C. for the 30 minutes preceding the experiment. A combination of collagen (150 μg/ml) and adrenaline (100 μmol/l) causes the mice to die by paralysis. Each mouse receives 0.1 ml of that combination, which gives a dose of 1.8 μg of adrenaline and 15 μg of collagen per mouse. The incidence of death or paralysis is observed 15 minutes after the intravenous injection (i.v.) of the combination (adrenaline+collagen) into the caudal vein. The peptides are injected at the same time as the combination of agonists. In the case of the tests relating to the duration of action, the mice are pre-treated with the peptides i.v. in a volume of 0.1 ml. A histological examination of the lungs is carried out in order to visualise the presence of microthrombi in the vessels of the microcirculation, which are attributable to the adrenaline-collagen combination. At the end of the experiment, the lungs are rapidly removed, fixed in formalin and then enclosed in paraffin. 5 μm sections are made and coloured with haematoxylin/eosin. The sections are examined and the presence or absence of microthrombi is noted. The X^2 test (Fischer) is used to determine whether there is a significant difference between the effects in mice that have received the peptides and those that have not.
smiles,measurement,value
N=C(N)NCCC[C@H](NC(=O)C1CCNCC1)C(=O)NCC(=O)N[C@@H](CC(=O)O)C(=O)N[C@@H](Cc1c[nH]c2ccccc12)C(=O)O [Example 1] (H-[Inp]RGDW-OH),duration of action,more than one
